Laboratory results taken from PMC10501992, “How Pol α-primase is targeted to replisomes to prime eukaryotic DNA replication” (Molecular Cell, 2023).
These are yes or no findings as the source states them, for the method shown.

Target: T1, MCM5 (human) (human) (UniProt P33992)
T1 sequence: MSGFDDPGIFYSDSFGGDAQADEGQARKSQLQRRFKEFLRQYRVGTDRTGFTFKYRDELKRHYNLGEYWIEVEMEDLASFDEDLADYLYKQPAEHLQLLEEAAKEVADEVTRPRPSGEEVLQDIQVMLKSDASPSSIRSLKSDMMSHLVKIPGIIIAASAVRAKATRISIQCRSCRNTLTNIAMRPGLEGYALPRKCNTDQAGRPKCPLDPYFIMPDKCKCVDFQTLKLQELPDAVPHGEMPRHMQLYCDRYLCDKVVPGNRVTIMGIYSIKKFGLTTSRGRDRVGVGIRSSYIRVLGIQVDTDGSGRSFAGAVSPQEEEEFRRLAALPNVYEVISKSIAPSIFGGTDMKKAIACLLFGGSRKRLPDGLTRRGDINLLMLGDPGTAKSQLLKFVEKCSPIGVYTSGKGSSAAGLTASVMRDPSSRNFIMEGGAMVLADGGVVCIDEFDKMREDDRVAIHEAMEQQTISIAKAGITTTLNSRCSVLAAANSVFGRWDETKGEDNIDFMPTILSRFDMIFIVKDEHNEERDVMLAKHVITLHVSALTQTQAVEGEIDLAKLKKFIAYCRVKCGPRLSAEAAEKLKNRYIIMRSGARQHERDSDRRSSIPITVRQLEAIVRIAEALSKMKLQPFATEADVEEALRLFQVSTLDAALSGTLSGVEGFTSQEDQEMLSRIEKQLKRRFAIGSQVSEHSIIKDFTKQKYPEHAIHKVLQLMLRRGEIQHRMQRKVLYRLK
Experiment: cryo-EM structure; human replisome: 150 nM CMG on fork DNA (60 nt or 15 nt 5′ flap) with 1.5-fold molar excess of AND-1, TIMELESS-TIPIN, CLASPIN and Pol α-primase; 25 mM HEPES-NaOH pH 7.6, 150 mM NaOAc, 0.5 mM TCEP, 500 μM AMP-PNP, 10 mM Mg(OAc)2, on ice; 10-30% glycerol gradient with glutaraldehyde and BS3 cross-linkers; both purified

binding: no binding
B1: PRIM2 (human primase accessory subunit) (natural protein)
chain: MEFSGRKWRKLRLAGDQRNASYPHCLQFYLQPPSENISLIEFENLAIDRVKLLKSVENLGVSYVKGTEQYQSKLESELRKLKFSYRENLEDEYEPRRRDHISHFILRLAYCQSEELRRWFIQQEMDLLRFRFSILPKDKIQDFLKDSQLQFEAISDEEKTLREQEIVASSPSLSGLKLGFESIYKIPFADALDLFRGRKVYLEDGFAYVPLKDIVAIILNEFRAKLSKALALTARSLPAVQSDERLQPLLNHLSHSYTGQDYSTQGNVGKISLDQIDLLSTKSFPPCMRQLHKALRENHHLRHGGRMQYGLFLKGIGLTLEQALQFWKQEFIKGKMDPDKFDKGYSYNIRHSFGKEGKRTDYTPFSCLKIILSNPPSQGDYHGCPFRHSDPELLKQKLQSYKISPGGISQILDLVKGTHYQVACQKYFEMIHNVDDCGFSLNHPNQFFCESQRILNGGKDIKKEPIQPETPQPKPSVQKTKDASSALASLNSSLEMDMEGLEDYFSEDS
notes: PRIM2, human; modelled residues 1-5 (N terminus) and 17-252 (NTD); stood in the assay as a subunit of m18; also called PRIM2NTD; PRIM2_(Nterm)
